For assay [1], the target named is Med31 (Soh1) (S. cerevisiae) (UniProt P38633). Put plainly: co-purification (Ni-NTA affinity, anion exchange, size exclusion); six subunits co-expressed in E. coli from a single plasmid; complex captured by the deca-histidine tag on Med31 on Ni-NTA agarose (50 mM Tris pH 8.0, 150 mM NaCl, 5 mM DTT), then HiTrap Q and Superdex 200; subunits seen by SDS-PAGE. (SEC sorts molecules by how far they enter the pores of the column.)

Amino acid sequences for entries named in this document (tags omitted).
UniProt P38633: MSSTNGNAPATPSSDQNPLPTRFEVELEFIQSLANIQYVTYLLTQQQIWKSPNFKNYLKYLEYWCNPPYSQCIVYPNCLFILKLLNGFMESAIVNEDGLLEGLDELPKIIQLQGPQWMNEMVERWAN
UniProt Q08278: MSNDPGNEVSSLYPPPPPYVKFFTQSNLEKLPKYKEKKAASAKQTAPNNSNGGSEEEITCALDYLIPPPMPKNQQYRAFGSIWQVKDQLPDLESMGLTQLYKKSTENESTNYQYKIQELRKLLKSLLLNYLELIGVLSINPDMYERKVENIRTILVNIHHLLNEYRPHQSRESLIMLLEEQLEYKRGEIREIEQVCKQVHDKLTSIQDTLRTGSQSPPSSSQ
UniProt Q06213: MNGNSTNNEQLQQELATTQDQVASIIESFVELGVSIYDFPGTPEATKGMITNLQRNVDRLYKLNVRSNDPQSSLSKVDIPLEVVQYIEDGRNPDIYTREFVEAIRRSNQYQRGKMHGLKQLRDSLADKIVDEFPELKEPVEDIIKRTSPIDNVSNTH
UniProt Q12343: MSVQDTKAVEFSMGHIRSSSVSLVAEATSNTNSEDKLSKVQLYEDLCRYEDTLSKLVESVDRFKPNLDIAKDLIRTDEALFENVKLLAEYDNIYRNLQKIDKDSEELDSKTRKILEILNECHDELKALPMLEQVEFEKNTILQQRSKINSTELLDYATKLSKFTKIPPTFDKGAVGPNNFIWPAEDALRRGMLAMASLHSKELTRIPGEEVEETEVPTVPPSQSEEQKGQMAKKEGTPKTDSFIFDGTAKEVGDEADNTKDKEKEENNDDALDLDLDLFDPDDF
UniProt P47822: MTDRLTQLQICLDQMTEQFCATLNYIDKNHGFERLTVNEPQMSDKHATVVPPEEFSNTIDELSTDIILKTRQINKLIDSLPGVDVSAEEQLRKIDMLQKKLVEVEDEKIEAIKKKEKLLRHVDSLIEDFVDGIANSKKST

For a further assay, the target named is Med7 (S. cerevisiae) (UniProt Q08278). Put plainly: cross-linking; purified 6-subunit middle module, 0.5 mg/ml in 1x PBS, 2 mM DTT; 0.7 mM isotopically coded CBDPS, 30 min at 30°C; trypsin and/or GluC digest, avidin enrichment, LC-MS/MS (lysine-lysine cross-links); both purified.

These are yes or no findings as the source states them, for the method shown. Some entries that bind do so weakly or less than the wild type.

On to Med7 (from UniProt Q08278 1-222), for which the binding entry in assay [1] is recorded as “binds”. In the case of “Med10 (Nut2) (from UniProt Q06213 1-157)”, the binding result (in assay [1]; with Med7 (S. cerevisiae)) was “binds” each time. As to Med4 (from UniProt Q12343 1-284), the binding entry in assay [1] is reported as “binds”. For “Med21 (Srb7) (from UniProt P47822 1-140)”, the binding entry (in assay [1]; with Med7 (S. cerevisiae)) was “binds” each time.

The values above are taken from publication PMC3814369.
